PMC5379520
These are yes or no findings as the source states them, for the method shown. Binding seen in cells or lysates may run through a third protein. Some results given as binding are weak or reduced against the parent protein; the word gives no strength.

Protein sequences, listed by entry. Tags and fused reporters are not part of them.
UniProt P43694: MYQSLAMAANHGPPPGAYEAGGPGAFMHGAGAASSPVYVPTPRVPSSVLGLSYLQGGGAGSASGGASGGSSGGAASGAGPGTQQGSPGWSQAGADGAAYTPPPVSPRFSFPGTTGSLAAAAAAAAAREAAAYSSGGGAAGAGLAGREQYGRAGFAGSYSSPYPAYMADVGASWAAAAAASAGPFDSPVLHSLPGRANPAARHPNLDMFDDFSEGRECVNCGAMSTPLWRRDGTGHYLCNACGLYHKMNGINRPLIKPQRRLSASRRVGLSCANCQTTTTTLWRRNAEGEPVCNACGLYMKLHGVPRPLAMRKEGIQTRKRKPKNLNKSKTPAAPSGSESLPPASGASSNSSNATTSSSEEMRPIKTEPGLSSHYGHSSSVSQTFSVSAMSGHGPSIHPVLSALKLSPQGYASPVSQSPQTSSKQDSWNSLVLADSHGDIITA

Target: human GATA4 (human) (UniProt P43694)
Experiment: co-IP; HEK293T co-transfected with GATA4 and wild-type or mutant ZFPM2; lysates 48 h after transfection incubated with HA affinity gel overnight at 4 °C; western blot, semi-quantitative analysis with ImageJ, three independent experiments

binding: binds
B1: human ZFPM2/FOG2 protein, wild type (protein, UniProt Q8WW38 1-1151)
chain: MSRRKQSKPRQIKRPLEDAIEDEEEECPSEETDIISKGDFPLEESFSTEFGPENLSCEEVEYFCNKGDDEGIQETAESDGDTQSEKPGQPGVETDDWDGPGELEVFQKDGERKIQSRQQLPVGTTWGPFPGKMDLNNNSLKTKAQVPMVLTAGPKWLLDVTWQGVEDNKNNCIVYSKGGQLWCTTTKAISEGEELIAFVVDFDSRLQAASQMTLTEGMYPARLLDSIQLLPQQAAMASILPTAIVNKDIFPCKSCGIWYRSERNLQAHLMYYCSGRQREAAPVSEENEDSAHQISSLCPFPQCTKSFSNARALEMHLNSHSGVKMEEFLPPGASLKCTVCSYTADSVINFHQHLFSHLTQAAFRCNHCHFGFQTQRELLQHQELHVPSGKLPRESDMEHSPSATEDSLQPATDLLTRSELPQSQKAMQTKDASSDTELDKCEKKTQLFLTNQRPEIQPTTNKQSFSYTKIKSEPSSPRLASSPVQPNIGPSFPVGPFLSQFSFPQDITMVPQASEILAKMSELVHRRLRHGSSSYPPVIYSPLMPKGATCFECNITFNNLDNYLVHKKHYCSSRWQQMAKSPEFPSVSEKMPEALSPNTGQTSINLLNPAAHSADPENPLLQTSCINSSTVLDLIGPNGKGHDKDFSTQTKKLSTSSNNDDKINGKPVDVKNPSVPLVDGESDPNKTTCEACNITFSRHETYMVHKQYYCATRHDPPLKRSASNKVPAMQRTMRTRKRRKMYEMCLPEQEQRPPLVQQRFLDVANLNNPCTSTQEPTEGLGECYHPRCDIFPGIVSKHLETSLTINKCVPVSKCDTTHSSVSCLEMDVPIDLSKKCLSQSERTTTSPKRLLDYHECTVCKISFNKVENYLAHKQNFCPVTAHQRNDLGQLDGKVFPNPESERNSPDVSYERSIIKCEKNGNLKQPSPNGNLFSSHLATLQGLKVFSEAAQLIATKEENRHLFLPQCLYPGAIKKAKGADQLSPYYGIKPSDYISGSLVIHNTDIEQSRNAENESPKGQASSNGCAALKKDSLPLLPKNRGMVIVNGGLKQDERPAANPQQENISQNPQHEDDHKSPSWISENPLAANENVSPGIPSAEEQLSSIAKGVNGSSQAPTSGKYCRLCDIQFNNLSNFITHKKFYCSSHAAEHVK
